Source: PMC4492759, “Pharmacological profiling of the hemodynamic effects of cannabinoid ligands: a combined in vitro and in vivo approach” (Pharmacology Research & Perspectives, 2015)

Sequences of proteins named here, by UniProt entry; tags and fusion partners are left off.
UniProt P20272, whole entry: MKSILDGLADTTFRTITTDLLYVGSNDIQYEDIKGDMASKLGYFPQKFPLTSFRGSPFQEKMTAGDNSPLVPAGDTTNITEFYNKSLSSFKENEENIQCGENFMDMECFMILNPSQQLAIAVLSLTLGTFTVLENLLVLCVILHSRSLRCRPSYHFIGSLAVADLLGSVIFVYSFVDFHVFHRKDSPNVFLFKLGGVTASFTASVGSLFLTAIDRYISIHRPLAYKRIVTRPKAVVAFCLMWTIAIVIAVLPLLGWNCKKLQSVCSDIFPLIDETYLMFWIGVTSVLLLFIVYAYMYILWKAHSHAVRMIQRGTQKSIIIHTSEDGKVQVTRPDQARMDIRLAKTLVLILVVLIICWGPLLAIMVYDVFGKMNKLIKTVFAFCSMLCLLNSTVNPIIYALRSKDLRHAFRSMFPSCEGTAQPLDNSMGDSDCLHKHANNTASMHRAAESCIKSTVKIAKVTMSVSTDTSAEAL

Molecular target: T1, rat CB1 (Rattus norvegicus, UniProt P20272)
T1 construct: expressed in transfected cells; host or cells: HEK293s, transient transfection; membranes prepared
Assay: [35S]-GTPγS binding, membranes of HEK293s cells transfected with rat CB1
Format: biochemical
Conditions: antagonist mode, vs EC80 concentration of CP55940; mean ± SEM; read-out: CB1 EC50, Rat (ligand behaved as an antagonist)
Description: Antagonist assays were performed similarly, with the addition of an EC80 concentration of CP55940 as a nonselective CB1/CB2 agonist in conjunction with the ligand to be tested. Nonspecific binding was determined in the presence of 20 μmol/L unlabeled GTPγS. The reaction was terminated by addition of ice-cold wash buffer (50 mmol/L Tris-HCl, 5 mmol/L MgCl2, 50 mmol/L NaCl; pH 7.4) followed by rapid filtration under vacuum through 96-well B-glass fiber filter plates (PerkinElmer, Waltham, Massachusetts, USA) using a Biomek FX (Beckman Coulter, Bromma, Sweden). The filter plates were dried (30 min at 50°C) before scintillation liquid (PerkinElmer) was added onto the filters and the bound radioactivity was determined using a scintillation counter (Wallac). Data were fitted with a four-parameter logistic fit using the equation y = A + (B − A)/1 + ((C/x)^D), where A is no activation, B is full activation, C is the EC50, and D is the Hill slope. All data were based on at least three independent experiments.

## Cc1c(C(=O)NN2CCCCC2)nn(-c2ccc(Cl)cc2Cl)c1-c1ccc(I)cc1 [AM251, 1-(2,4-dichlorophenyl)-5-(4-iodophenyl)-4-methyl-N-(piperidin-1-yl)-1H-pyrazole-3-carboxamide]
  EC50: 26 ± 8 nM
